Assay results from the supplement of paper PMC3334620.
Whole data set: some 33,000 sequences, median “E-score (-0.5 to 0.5)” near -8e-05, cut for the highest 2% near 0.23. Some of the results follow.

Each sequence was assayed against T1, Nrg2 (UniProt P38082) (assay: PBM E-score (8-mer binding enrichment) (E-score (-0.5 to 0.5)); higher = stronger / more preferred TF binding). Conditions: protein concentration: 100 nM; construct: GST-full length.
T1 sequence: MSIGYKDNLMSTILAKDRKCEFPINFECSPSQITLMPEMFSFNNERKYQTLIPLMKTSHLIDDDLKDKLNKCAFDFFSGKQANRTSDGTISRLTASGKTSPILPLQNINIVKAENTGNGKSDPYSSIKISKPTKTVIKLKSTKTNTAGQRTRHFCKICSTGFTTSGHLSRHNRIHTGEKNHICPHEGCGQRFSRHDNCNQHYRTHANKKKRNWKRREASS
Procedure, shortened: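 For each ungapped eight-base word taken together with its reverse complement, the Universal PBM Analysis Suite assigned an E-score. Binding data came from GST-tagged yeast transcription factors, applied at about 100-200 nM, on universal all-10-mer Agilent arrays made double-stranded by primer extension. Fluorescent anti-GST marked bound protein, and scans were normalised with masliner.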

Sequence | PBM E-score
CTGGGTTC | 0.172
AGGAGACA | -0.0211
GTAAGAGA | -0.079
CAATTCGC | 0.277
GGCGGAGA | 0.0596
GCATCGGC | -0.07
GTAGGTTA | 0.0569
GTCTAAGA | 0.0993
CGCCAACA | -0.0246
CTTCTACA | -0.0433
GCAGGGAA | 0.238
CTTGTAAA | 0.0911
AGCTTCCT | 0.0472
AATCGGAA | 0.242
AAAACCGT | -0.108
GGGGAGGA | -0.186
ATGGTTGG | -0.17
AGTAATGG | 0.074
ATTTCGTG | 0.223
AGGACCCG | 0.0935
GAACCTTA | 0.0892
AACGCAGT | -0.131
TCGTCCCA | 0.0993
ATAGCCGA | 0.143
CTAACAGC | -0.0587

Sequence | PBM E-score
AATATATA | 0.0908
CAGCCCTA | 0.127
ATTTGTAA | 0.118
CATAGACC | -0.188
ATGCTGTA | -0.0825
GAGTATCC | -0.0384
GGGTTCAC | 0.142
GGGATCTA | 0.186
ATGATCAG | 0.027
CAGTAGTA | 0.0461
TCGCATCA | 0.0779
GAGTATCA | 0.00367
ACCACCAA | -0.0801
ATGTGAAA | -0.0675
ACAATTCT | 0.108
GCTGTAGA | -0.122
AAGTGCTC | -0.139
CTCAGTGA | -0.213
CTAGAACC | -0.0469
ATCCGCAT | 0.116
CGATCTCA | 0.0542
AAACTTGT | 0.00567
GGGCCGAA | -0.0671
CGGTTAGA | -0.175
CCCCGAGG | -0.0349

Sequence | PBM E-score
ACGTTCTG | 0.0935
ACATTGCA | 0.136
AACGCCCG | 0.00625
CATGAAGC | -0.0144
GATGGTCC | -0.0427
ACGCAATA | 0.228
GACGTCCA | 0.0581
TATGTTGA | -0.0403
CCAGGACA | 0.109
ACACTTAC | 0.0076
AGTCAAGG | -0.174
GCTCGAAC | 0.191
GCGAGGAA | 0.0829
GGCTCCAC | -0.271
AACAGAGG | 0.0203
ACTCACAC | 0.0176
GTCCAAAC | -0.063
AAATAGAC | 0.165
AGAGGTTG | -0.134
GTACCATA | -0.0397
CGTACGTC | -0.285
AGTTCGCG | 0.106
ATAAAGCG | -0.0921
GATGAGAA | 0.0492
CCGTCCGC | -0.23

Copied from the list.
PBM E-score, GATGGTCC reads -0.0427
PBM E-score, AGAGGTTG reads -0.134
PBM E-score, GCTCGAAC reads 0.191
PBM E-score, GGCTCCAC reads -0.271
PBM E-score, AACGCCCG reads 0.00625

The list goes on:

Sequence | PBM E-score
CAGGGTGC | 0.19
AAGCAACA | 0.0458
AATATATG | 0.225
ACACGGGC | -0.092
CGTCAGCA | 0.0515
AGTACTCC | -0.0866
GATCTAAC | -0.0514
AACAGTCT | -0.195
AATTTTCT | 0.0132
ATTTGAAC | 0.0934
CCCGATTC | -0.0963
AACAAAGT | 0.26
ATAAATCC | 0.142
ACACTGAC | 0.0969
CTTCGTCA | 0.0727
CGATACAC | -0.0593
TACGCCAA | -0.211
AAAGGGCG | 0.0812
CCCGCCAC | 0.269
CGCCGAGA | 0.0142
CGTGGCTA | -0.162
CATCAGCA | 0.0503
ACCGTTCG | 0.0627
CATTGGGA | -0.111
AATCAATA | 0.179

Sequence | PBM E-score
GATCCATC | 0.0646
CGCTCTGA | -0.0124
ACGAAGAC | -0.135
CCCCGGTC | -0.118
AAGTGTTG | 0.109
AACCAATA | 0.13
CCCCTCCG | -0.231
TACAGTCA | 0.143
AACGAACC | 0.155
CCAGTTGC | -0.17
TGCCCCCA | -0.311
TGAGAGCA | -0.0315
ACAGCGAA | 0.0147
ATCATTAA | 0.171
AAATCTGT | 0.0187
CAGTGTTC | 0.172
AGCCCAAG | -0.0906
CCACTGCG | 0.0191
ATCTCGTC | 0.162
AAAATAGT | 0.0248
ACAAGCGA | 0.149
GAGCGGCC | -0.0758
CCTGATAC | 0.229
CAAGAGGC | -0.0374
ACTTAACG | -0.143

Sequence | PBM E-score
CACGCTGC | -0.215
CCTTCGAC | -0.206
GATCTCTA | -0.182
AGGTCCAC | -0.199
AAAGCGGT | -0.206
ATGTTCGC | -0.113
ACCTGTCA | 0.106
CACCTATG | 0.0545
CATGTTCC | -0.128
ATAGATGG | -0.093
CTGCTCTA | 0.0167
GCGTGCTA | -0.163
CGGCACGA | 0.0169
ACACCTAG | -0.108
CGCCTTTA | -0.0551
CAATTATA | 0.0143
CCAGTCTA | -0.151
GCTTGTGA | -0.114
CGGTAGTA | -0.0986
ACGGGTGC | 0.0229
GCTGCCTA | 0.0864
AAATCTAC | 0.0697
CCCTGTCA | 0.0427
AATGCAAT | -0.287
CGAACCAG | 0.132

Sequence | PBM E-score
GGTTGTTA | 0.126
TCTACCAA | -0.0391
ACCCTGGA | 0.279
AGGGCAGA | -0.0343
ATCGAGCG | 0.229
ACAGACCT | 0.00105
GATCTACA | 0.0846
CAAAGGTC | -0.00259
AAAATTCA | 0.199
ACGGTTGA | -0.049
AGTACCCG | 0.00561
CCAGTCGA | 0.0204
AATCGGAT | 0.121
AGTCTTCG | -0.228
GGGAACGA | -0.135
CAGTGGGA | -0.0307
CATCAAAC | 0.047
GGGTTGGA | -0.0866
CGGAGAAG | -0.161
CTTACGGA | -0.243
CCCACAAA | 0.247
AAATAGTG | 0.111

For reference, part of the list above.
Sequence | PBM E-score
GGGAACGA | -0.135
CAGTGGGA | -0.0307
